Values quoted from earlier work as cited in patent US20230030607A1, “Novel oxygen pulse therapy method for treating COVID19 and viral, bacterial, fungal or parasitic respiratory and other diseases” (priority 2021, published 2023).
For at least one compound, name, drawing or mass did not settle the structure.

What was measured:
COVID-19 [1] = settings: patients with severe and critical illness; cited from earlier work
COVID-19 [2] = settings: hospitalized patients; cited from earlier work

Structure (SMILES) | length of time on a ventilator and survival (COVID-19 [1]) | effect on 28-day mortality or the in-hospital course of COVID-19 (COVID-19 [2])
C[C@@H]1C[C@H]2[C@@H]3CCC4=CC(=O)C=C[C@]4(C)[C@@]3(F)[C@@H](O)C[C@]2(C)[C@@]1(O)C(=O)CO [Dexamethasone] | can help reduce the length of time on a ventilator and save lives | –
CCC(CC)COC(=O)[C@H](C)N[P@](=O)(OC[C@H]1O[C@@](C#N)(c2ccc3c(N)ncnn23)[C@H](O)[C@@H]1O)Oc1ccccc1 [remdesivir] | – | little or no effect
